Results deposited as PubChem BioAssay AID1259308 (NCATS, 2017).

Purpose: 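Genes whose loss raises luciferase production in HEK293 cells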 (primary screen)
Cells: human HEK293 embryonic kidney cells stably expressing firefly luciferase (HEK-CMV-Luc2-Hygro)
Knock-down reagent: single siRNA against human genes, 0.8 pmol siRNA per well
Timing: 72 h
Measured: 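Reporter luminescence and viable-cell signal on separate replicate plates, given as percent of non-targeting control and median/MAD z-scores, plus per-cell luciferase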
Reading the numbers: total luciferase, z-score and total luciferase, % of control: higher = more reporter protein produced
Rule for the call: 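An siRNA counts as active if its total luciferase robust z-score exceeds 3; genes with two or more such siRNAs out of three were retested with fresh siRNAs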
Calls: active = raised luciferase; inactive = no rise
Here is a random part of about 59,000 reagents tested. Over the whole deposit, about 1,510 (2.6%) are marked active. 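Calls use total luciferase alone and ignore viability, so some active siRNAs may act by altering cell number.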 Reagents against one gene are numbered here. Not all columns of the deposit are shown. Reagent sequences are not shown.

The opening 2 records as a preview:
{"Gene": "EXOC3L1 (exocyst complex component 3 like 1)", "siRNA no.": 1, "total luciferase, z-score": -1.31, "total luciferase, % of control": 55.7, "activity call": "inactive"}
{"Gene": "EXOC3L1 (exocyst complex component 3 like 1)", "siRNA no.": 2, "total luciferase, z-score": 0.0341, "total luciferase, % of control": 82.6, "activity call": "inactive"}

The list itself, repeating the preview:
{"Gene": "EXOC3L1 (exocyst complex component 3 like 1)", "siRNA no.": 1, "total luciferase, z-score": -1.31, "total luciferase, % of control": 55.7, "activity call": "inactive"}
{"Gene": "EXOC3L1 (exocyst complex component 3 like 1)", "siRNA no.": 2, "total luciferase, z-score": 0.0341, "total luciferase, % of control": 82.6, "activity call": "inactive"}
{"Gene": "EXOC3L1 (exocyst complex component 3 like 1)", "siRNA no.": 3, "total luciferase, z-score": -0.441, "total luciferase, % of control": 73.1, "activity call": "inactive"}
{"Gene": "XCL1 (X-C motif chemokine ligand 1)", "siRNA no.": 1, "total luciferase, z-score": -0.475, "total luciferase, % of control": 72.4, "activity call": "inactive"}
{"Gene": "XCL1 (X-C motif chemokine ligand 1)", "siRNA no.": 2, "total luciferase, z-score": 0.112, "total luciferase, % of control": 84.1, "activity call": "inactive"}
{"Gene": "XCL1 (X-C motif chemokine ligand 1)", "siRNA no.": 3, "total luciferase, z-score": -0.554, "total luciferase, % of control": 70.9, "activity call": "inactive"}
{"Gene": "RSRC1 (arginine and serine rich coiled-coil 1)", "siRNA no.": 1, "total luciferase, z-score": 0.171, "total luciferase, % of control": 85.3, "activity call": "inactive"}
{"Gene": "RSRC1 (arginine and serine rich coiled-coil 1)", "siRNA no.": 2, "total luciferase, z-score": -1.21, "total luciferase, % of control": 57.9, "activity call": "inactive"}
{"Gene": "RSRC1 (arginine and serine rich coiled-coil 1)", "siRNA no.": 3, "total luciferase, z-score": 0.017, "total luciferase, % of control": 82.2, "activity call": "inactive"}
{"Gene": "SMIM3 (small integral membrane protein 3)", "siRNA no.": 1, "total luciferase, z-score": 0.358, "total luciferase, % of control": 89, "activity call": "inactive"}
{"Gene": "SMIM3 (small integral membrane protein 3)", "siRNA no.": 2, "total luciferase, z-score": 0.292, "total luciferase, % of control": 87.7, "activity call": "inactive"}
{"Gene": "SMIM3 (small integral membrane protein 3)", "siRNA no.": 3, "total luciferase, z-score": 0.221, "total luciferase, % of control": 86.3, "activity call": "inactive"}
{"Gene": "BSPRY (B-box and SPRY domain containing)", "siRNA no.": 1, "total luciferase, z-score": 0.84, "total luciferase, % of control": 98.6, "activity call": "inactive"}
{"Gene": "BSPRY (B-box and SPRY domain containing)", "siRNA no.": 2, "total luciferase, z-score": 2.66, "total luciferase, % of control": 135, "activity call": "inactive"}
{"Gene": "BSPRY (B-box and SPRY domain containing)", "siRNA no.": 3, "total luciferase, z-score": -0.177, "total luciferase, % of control": 78.4, "activity call": "inactive"}
{"Gene": "RPL36 (ribosomal protein L36)", "siRNA no.": 1, "total luciferase, z-score": -2.73, "total luciferase, % of control": 27.6, "activity call": "inactive"}
{"Gene": "RPL36 (ribosomal protein L36)", "siRNA no.": 2, "total luciferase, z-score": -3.07, "total luciferase, % of control": 20.9, "activity call": "inactive"}
{"Gene": "RPL36 (ribosomal protein L36)", "siRNA no.": 3, "total luciferase, z-score": -2.32, "total luciferase, % of control": 35.8, "activity call": "inactive"}
{"Gene": "BTN2A1 (butyrophilin subfamily 2 member A1)", "siRNA no.": 1, "total luciferase, z-score": 0.191, "total luciferase, % of control": 85.7, "activity call": "inactive"}
{"Gene": "BTN2A1 (butyrophilin subfamily 2 member A1)", "siRNA no.": 2, "total luciferase, z-score": -1.58, "total luciferase, % of control": 50.5, "activity call": "inactive"}
{"Gene": "BTN2A1 (butyrophilin subfamily 2 member A1)", "siRNA no.": 3, "total luciferase, z-score": 0.139, "total luciferase, % of control": 84.7, "activity call": "inactive"}
{"Gene": "GPC6 (glypican 6)", "siRNA no.": 1, "total luciferase, z-score": 0.264, "total luciferase, % of control": 87.1, "activity call": "inactive"}
{"Gene": "GPC6 (glypican 6)", "siRNA no.": 2, "total luciferase, z-score": 0.788, "total luciferase, % of control": 97.6, "activity call": "inactive"}
{"Gene": "GPC6 (glypican 6)", "siRNA no.": 3, "total luciferase, z-score": -1.55, "total luciferase, % of control": 51, "activity call": "inactive"}
{"Gene": "ACOXL (acyl-CoA oxidase like)", "siRNA no.": 1, "total luciferase, z-score": 1.06, "total luciferase, % of control": 103, "activity call": "inactive"}
{"Gene": "ACOXL (acyl-CoA oxidase like)", "siRNA no.": 2, "total luciferase, z-score": -2.68, "total luciferase, % of control": 28.5, "activity call": "inactive"}
{"Gene": "ACOXL (acyl-CoA oxidase like)", "siRNA no.": 3, "total luciferase, z-score": -1.11, "total luciferase, % of control": 59.8, "activity call": "inactive"}
{"Gene": "OLFM2 (olfactomedin 2)", "siRNA no.": 1, "total luciferase, z-score": -0.589, "total luciferase, % of control": 70.2, "activity call": "inactive"}
{"Gene": "OLFM2 (olfactomedin 2)", "siRNA no.": 2, "total luciferase, z-score": -1.05, "total luciferase, % of control": 61, "activity call": "inactive"}
{"Gene": "OLFM2 (olfactomedin 2)", "siRNA no.": 3, "total luciferase, z-score": 0.308, "total luciferase, % of control": 88, "activity call": "inactive"}
{"Gene": "CLEC4E (C-type lectin domain family 4 member E)", "siRNA no.": 1, "total luciferase, z-score": 1.85, "total luciferase, % of control": 119, "activity call": "inactive"}
{"Gene": "CLEC4E (C-type lectin domain family 4 member E)", "siRNA no.": 2, "total luciferase, z-score": -0.716, "total luciferase, % of control": 67.6, "activity call": "inactive"}
{"Gene": "CLEC4E (C-type lectin domain family 4 member E)", "siRNA no.": 3, "total luciferase, z-score": -0.11, "total luciferase, % of control": 79.7, "activity call": "inactive"}
